In patent US20050261265A1, “MODULATING CELLULAR SENESCENCE BY AMPHIPHYSIN-1” (priority 2000, published 2005):
No constants are given. Whether binding was seen depends on the method and setting. In cells and extracts the contact can be indirect. Some results given as binding are weak or reduced against the parent protein; the word gives no strength.

The chains behind the UniProt entries cited, without tags or fusion partners. Where a name states a change or a piece, a line headed by the entry shows the natural chain unless it says otherwise.
UniProt Q03135: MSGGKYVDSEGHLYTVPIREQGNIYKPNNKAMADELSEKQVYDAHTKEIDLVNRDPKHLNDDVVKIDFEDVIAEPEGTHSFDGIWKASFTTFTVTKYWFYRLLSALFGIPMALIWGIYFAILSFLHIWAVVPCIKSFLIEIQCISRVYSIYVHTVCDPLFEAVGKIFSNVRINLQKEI

Assays:
[1] = target: epidermal growth factor receptor (EGFR) (human) (UniProt P00533); test: co-immunoprecipitation from human fibroblast lysates, Western blot
[2] = target: epidermal growth factor receptor (EGFR) (human) (UniProt P00533); test: co-immunoprecipitation from human fibroblast lysates, Western blot (FIG. 15 legend)
[3] = target: epidermal growth factor receptor (EGFR) (human) (UniProt P00533); test: co-immunoprecipitation from old human fibroblast lysates (anti-EGFR or anti-caveolin-1 antibody, protein A-Sepharose), Western blot

Measured: binding

caveolin-1 protein (from UniProt Q03135 2-178)
binds: all assays above
